According to the supplement of paper PMC12823440, “Inhibitors supercharge kinase turnover through native proteolytic circuits” (Nature, 2025):
Counter-ions that a name gives are not always drawn. The list shows a part of the results. The calls rarely recur for the same compound in another form.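 Kinases were expressed as nanoluciferase fusions in K562 cells and luminescence was read every 4 h between 2 and 18 h as percent of control, DMSO set to 100% and a positive control to 0%. A time point counts as decreased when the signal drops significantly (2 sigma). The hit call is the authors' own, does not follow from the count of time points alone, and its rule is not shown.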

The chains behind the UniProt entries cited, without tags or fusion partners. Where a name states a change or a piece, a line headed by the entry shows the natural chain unless it says otherwise.
UniProt Q9UQM7, whole entry: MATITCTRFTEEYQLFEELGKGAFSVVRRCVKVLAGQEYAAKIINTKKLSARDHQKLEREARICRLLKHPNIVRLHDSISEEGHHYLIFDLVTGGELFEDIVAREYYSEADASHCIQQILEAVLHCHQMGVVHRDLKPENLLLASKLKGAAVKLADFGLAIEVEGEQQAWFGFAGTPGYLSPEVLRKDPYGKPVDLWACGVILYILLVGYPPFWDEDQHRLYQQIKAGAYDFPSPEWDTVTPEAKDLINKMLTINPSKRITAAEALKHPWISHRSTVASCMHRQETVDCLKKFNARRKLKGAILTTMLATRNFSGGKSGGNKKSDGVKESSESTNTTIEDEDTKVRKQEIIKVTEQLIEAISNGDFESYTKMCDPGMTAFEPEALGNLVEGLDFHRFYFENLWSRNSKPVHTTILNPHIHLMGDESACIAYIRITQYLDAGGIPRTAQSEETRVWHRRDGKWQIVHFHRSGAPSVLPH
UniProt Q13555: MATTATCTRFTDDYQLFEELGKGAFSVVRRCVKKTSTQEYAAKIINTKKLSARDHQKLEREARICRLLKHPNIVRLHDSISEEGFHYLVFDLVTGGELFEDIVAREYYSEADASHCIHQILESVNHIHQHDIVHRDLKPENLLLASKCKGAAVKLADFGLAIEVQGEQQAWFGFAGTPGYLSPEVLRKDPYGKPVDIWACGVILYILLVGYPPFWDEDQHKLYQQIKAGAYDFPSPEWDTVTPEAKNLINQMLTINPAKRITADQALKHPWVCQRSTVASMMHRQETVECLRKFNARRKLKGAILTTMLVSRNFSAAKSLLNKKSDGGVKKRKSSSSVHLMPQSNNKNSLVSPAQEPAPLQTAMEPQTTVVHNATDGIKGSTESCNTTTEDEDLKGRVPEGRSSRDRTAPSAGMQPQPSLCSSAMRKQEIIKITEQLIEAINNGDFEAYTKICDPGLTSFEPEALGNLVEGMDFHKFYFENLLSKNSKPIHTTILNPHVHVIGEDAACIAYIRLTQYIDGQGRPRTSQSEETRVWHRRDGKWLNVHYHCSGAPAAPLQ

Each compound was assayed against CAMK2A (UniProt Q9UQM7) (assay: number of time points (of 5) at which kinase-Nluc abundance scored as decreased, DMSO-normalised (count); higher = more persistent destabilization). Conditions: K562; 2-18 h.

SMILES	number of time points
Cn1nccc1Nc1nccc(-c2ccn([C@H](CO)c3ccc(Cl)c(F)c3)c(=O)c2)n1 [Ravoxertinib] (10 µM)	0
COc1cc(Nc2ncc(F)c(Nc3ccc4c(n3)NC(=O)C(C)(C)O4)n2)cc(OC)c1OC [R406 (free base)] (10 µM)	0
S=C(SSC(=S)N1CCOCC1)N1CCOCC1 (10 µM)	0
CC1CCc2c(cc(Br)c(F)c2Br)N1C=O (stereo not drawn) (10 µM)	0
Cc1[nH]c(/C=C2\C(=O)Nc3ccccc32)c(C)c1CCC(=O)O [(Z)-Orantinib] (10 µM)	0
CCN1CCN(Cc2ccc(Nc3ncc(F)c(-c4cc(F)c5nc(C)n(C(C)C)c5c4)n3)nc2)CC1 [Abemaciclib (methanesulfonate)] (10 µM)	0
Cn1cnc2c(F)c(Nc3ccc(Br)cc3Cl)c(C(=O)NOCCO)cc21 [Selumetinib] (10 µM)	0
CCc1cc2c(cc1N1CCC(N3CCOCC3)CC1)C(C)(C)c1[nH]c3cc(C#N)ccc3c1C2=O [Alectinib] (10 µM)	0
C=C(CC[C@@H](C(=O)O)[C@H]1[C@H](O)C[C@@]2(C)C3=C(CC[C@]12C)[C@@]1(C)CC[C@H](OC(C)=O)C(C)(C)[C@@H]1CC3)C(C)C [Pachymic acid] (10 µM)	0
Cc1[nH]c(/C=C2\C(=O)Nc3ccccc32)c(C)c1CCC(=O)O [Orantinib] (10 µM)	0
C=CC(=O)Nc1ccc(CN2C(=O)N(c3cc(OC)cc(OC)c3)Cc3cnc(Nc4ccc(N5CCN(C)CC5)cc4)nc32)cc1 (2.5 µM)	0

Each compound was assayed against CAMK2G (UniProt Q13555) in the same assay as above. Conditions: K562; 2-18 h.

SMILES	number of time points
C[C@@H]1CCN(C(=O)CC#N)C[C@@H]1N(C)c1ncnc2[nH]ccc12 [Tofacitinib] (10 µM)	0
CC#CC(=O)N1CC[C@@H](n2c(=O)n(-c3ccc(Oc4ccccc4)cc3)c3c(N)ncnc32)C1 [Tirabrutinib (hydrochloride)] (10 µM)	0
Cc1ccc(C(=O)Nc2ccc(Oc3cc4cnn(C)c4cc3-c3cn[nH]c3)c(F)c2)c(=O)n1-c1ccc(F)cc1 [Merestinib] (2.5 µM)	0
Cc1cc(Nc2ncnc3ccc(NC4=NC(C)(C)CO4)cc23)ccc1Oc1ccn2ncnc2c1 [Tucatinib (hemiethanolate)] (2.5 µM)	0
C[C@@]1(c2ncncc2F)NC(=O)c2cc(-c3cn[nH]c3)ccc21 (10 µM)	0
COc1cc(Nc2ncc(F)c(Nc3ccc4c(n3)NC(=O)C(C)(C)O4)n2)cc(OC)c1OC (10 µM)	0
Cc1cc2ncc(-c3ccc(O)c(O)c3)nc2cc1C [Tyrphostin AG1433] (10 µM)	0
C=CC(=O)Nc1cccc(Nc2nc(Nc3ccc(N4CCN(C(C)=O)CC4)cc3OC)ncc2C(F)(F)F)c1 [Rociletinib hydrobromide] (10 µM)	0
Cc1cc(Nc2ncnc3ccc(NC4=NC(C)(C)CO4)cc23)ccc1Oc1ccn2ncnc2c1 [Tucatinib] (2.5 µM)	0
CCc1cc2c(cc1N1CCC(N3CCOCC3)CC1)C(C)(C)c1[nH]c3cc(C#N)ccc3c1C2=O [Alectinib (Hydrochloride)] (2 µM)	0
Cn1nccc1Nc1nccc(-c2ccn([C@H](CO)c3ccc(Cl)c(F)c3)c(=O)c2)n1 [Ravoxertinib hydrochloride] (10 µM)	0
COc1cc2c(N3CCN(C(=O)Nc4ccc(OC(C)C)cc4)CC3)ncnc2cc1OCCCN1CCCCC1 [Tandutinib] (10 µM)	0
CC#CC(=O)N1CC[C@@H](n2c(=O)n(-c3ccc(Oc4ccccc4)cc3)c3c(N)ncnc32)C1 [Tirabrutinib] (10 µM)	0
C=CC(=O)Nc1cccc(Nc2nc(Nc3ccc(N4CCN(C(C)=O)CC4)cc3OC)ncc2C(F)(F)F)c1 [Rociletinib] (10 µM)	0
COc1cc(Nc2ncc(F)c(Nc3ccc4c(n3)N(COP(=O)(O)O)C(=O)C(C)(C)O4)n2)cc(OC)c1OC [Fostamatinib Disodium] (10 µM)	0
COc1cc2c(N3CCN(C(=O)Nc4ccc(OC(C)C)cc4)CC3)ncnc2cc1OCCCN1CCCCC1 [Tandutinib (hydrochloride)] (10 µM)	0
COc1cc(Nc2ncc(F)c(Nc3ccc4c(n3)N(COP(=O)(O)O)C(=O)C(C)(C)O4)n2)cc(OC)c1OC [Fostamatinib (disodium hexahydrate)] (10 µM)	0

Two entries picked at random from those above, as already listed:
SMILES	number of time points
COc1cc(Nc2ncc(F)c(Nc3ccc4c(n3)NC(=O)C(C)(C)O4)n2)cc(OC)c1OC (10 µM)	0
C=CC(=O)Nc1cccc(Nc2nc(Nc3ccc(N4CCN(C(C)=O)CC4)cc3OC)ncc2C(F)(F)F)c1 [Rociletinib] (10 µM)	0
